# From PMC6042963
# By UniProt entry, the sequences of proteins in these tests, tags left out.
# UniProt P01375: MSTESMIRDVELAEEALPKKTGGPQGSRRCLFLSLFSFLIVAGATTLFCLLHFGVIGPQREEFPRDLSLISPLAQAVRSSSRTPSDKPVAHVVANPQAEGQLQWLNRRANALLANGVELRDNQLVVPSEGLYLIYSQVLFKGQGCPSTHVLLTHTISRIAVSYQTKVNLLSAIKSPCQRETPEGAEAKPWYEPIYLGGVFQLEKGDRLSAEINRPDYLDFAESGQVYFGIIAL
# UniProt Q86WV6: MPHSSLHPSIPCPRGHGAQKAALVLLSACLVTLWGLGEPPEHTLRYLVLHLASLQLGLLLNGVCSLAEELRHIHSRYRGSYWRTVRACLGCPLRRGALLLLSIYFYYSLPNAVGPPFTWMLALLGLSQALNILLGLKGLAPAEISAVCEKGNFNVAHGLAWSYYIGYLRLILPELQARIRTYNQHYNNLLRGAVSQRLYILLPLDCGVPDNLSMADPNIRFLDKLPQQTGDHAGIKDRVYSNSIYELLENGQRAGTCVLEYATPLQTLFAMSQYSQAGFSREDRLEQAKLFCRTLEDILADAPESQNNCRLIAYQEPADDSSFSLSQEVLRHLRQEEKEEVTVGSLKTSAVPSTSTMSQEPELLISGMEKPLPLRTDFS
# T1: SREBP2-FLAG (human) (UniProt Q12772)
# T1 sequence: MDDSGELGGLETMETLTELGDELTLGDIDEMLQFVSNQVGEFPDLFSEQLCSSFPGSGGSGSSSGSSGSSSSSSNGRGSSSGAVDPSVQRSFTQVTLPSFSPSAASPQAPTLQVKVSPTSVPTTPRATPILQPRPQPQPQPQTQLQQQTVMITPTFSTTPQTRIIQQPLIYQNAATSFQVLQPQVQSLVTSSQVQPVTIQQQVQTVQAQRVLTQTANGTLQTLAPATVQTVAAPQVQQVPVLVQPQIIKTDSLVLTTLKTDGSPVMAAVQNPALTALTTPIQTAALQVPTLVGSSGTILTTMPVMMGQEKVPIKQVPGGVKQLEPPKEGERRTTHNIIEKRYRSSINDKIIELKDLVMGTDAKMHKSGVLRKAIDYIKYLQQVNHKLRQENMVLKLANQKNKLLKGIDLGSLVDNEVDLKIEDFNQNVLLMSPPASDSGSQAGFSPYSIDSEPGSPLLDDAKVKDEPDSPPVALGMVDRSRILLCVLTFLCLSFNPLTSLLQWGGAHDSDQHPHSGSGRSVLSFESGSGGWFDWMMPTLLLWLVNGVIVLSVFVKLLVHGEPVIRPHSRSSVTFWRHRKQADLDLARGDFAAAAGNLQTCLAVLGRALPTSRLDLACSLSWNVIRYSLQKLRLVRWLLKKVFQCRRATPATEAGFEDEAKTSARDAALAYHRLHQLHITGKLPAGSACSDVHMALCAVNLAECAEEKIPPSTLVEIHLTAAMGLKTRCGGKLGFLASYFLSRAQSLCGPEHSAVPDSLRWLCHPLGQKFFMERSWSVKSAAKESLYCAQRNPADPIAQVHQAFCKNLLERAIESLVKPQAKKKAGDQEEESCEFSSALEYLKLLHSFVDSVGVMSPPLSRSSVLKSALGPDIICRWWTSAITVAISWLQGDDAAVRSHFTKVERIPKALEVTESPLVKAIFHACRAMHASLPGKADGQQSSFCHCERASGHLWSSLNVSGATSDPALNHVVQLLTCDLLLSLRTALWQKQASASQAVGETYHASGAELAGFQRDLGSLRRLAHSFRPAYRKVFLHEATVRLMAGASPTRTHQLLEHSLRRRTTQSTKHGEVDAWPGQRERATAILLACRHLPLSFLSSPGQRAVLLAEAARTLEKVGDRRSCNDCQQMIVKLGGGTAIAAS
# T2: human iTAP-FLAG (human) (UniProt Q9BZ67)
# T2 sequence: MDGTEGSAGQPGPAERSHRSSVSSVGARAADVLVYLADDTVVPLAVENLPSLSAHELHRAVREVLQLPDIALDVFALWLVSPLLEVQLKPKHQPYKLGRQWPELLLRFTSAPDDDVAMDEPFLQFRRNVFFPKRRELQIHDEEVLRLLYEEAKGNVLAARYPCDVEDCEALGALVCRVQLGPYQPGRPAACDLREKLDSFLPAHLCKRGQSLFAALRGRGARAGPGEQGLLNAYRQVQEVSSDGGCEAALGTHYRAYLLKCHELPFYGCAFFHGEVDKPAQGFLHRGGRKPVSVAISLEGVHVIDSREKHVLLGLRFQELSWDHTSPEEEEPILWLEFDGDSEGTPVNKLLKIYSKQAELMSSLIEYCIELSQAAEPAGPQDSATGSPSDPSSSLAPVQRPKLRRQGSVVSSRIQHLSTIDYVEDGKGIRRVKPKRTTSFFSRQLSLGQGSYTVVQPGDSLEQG
# How the values were obtained:
# Experiment in all cases: affinity purification with mass spectrometry; anti-FLAG M2 Affinity Gel immunoprecipitates from HEK 293ET transfected with FLAG-tagged proteins; on-bead trypsin digest, mass spectrometry
# [1] = target: Human Tumor Necrosis Factor (TNF) containing an N-terminal FLAG tag (human) (UniProt P01375)
# [2] = target: T1, SREBP2-FLAG (human)
# [3] = target: STING-FLAG (human) (UniProt Q86WV6)
# [4] = target: T2, human iTAP-FLAG (human)
# [5] = target: STING-FLAG (human), Q86WV6; conditions: remark: other sources report otherwise
Binder,binding [1],binding [2],binding [3],binding [4],binding [5]
"endogenous iRhom1 (protein, UniProt Q96CC6 1-855) MSEARRDSTSSLQRKKPPWLKLDIPSAVPLTAEEPSFLQPLRRQAFLRSVSMPAETAHISSPHHELRRPVLQRQTSITQTIRRGTADWFGVSKDSDSTQKWQRKSIRHCSQRYGKLKPQVLRELDLPSQDNVSLTSTETPPPLYVGPCQLGMQKIIDPLARGRAFRVADDTAEGLSAPHTPVTPGAASLCSFSSSRSGFHRLPRRRKRESVAKMSFRAAAALMKGRSVRDGTFRRAQRRSFTPASFLEEDTTDFPDELDTSFFAREGILHEELSTYPDEVFESPSEAALKDWEKAPEQADLTGGALDRSELERSHLMLPLERGWRKQKEGAAAPQPKVRLRQEVVSTAGPRRGQRIAVPVRKLFAREKRPYGLGMVGRLTNRTYRKRIDSFVKRQIEDMDDHRPFFTYWLTFVHSLVTILAVCIYGIAPVGFSQHETVDSVLRNRGVYENVKYVQQENFWIGPSSEALIHLGAKFSPCMRQDPQVHSFIRSAREREKHSACCVRNDRSGCVQTSEEECSSTLAVWVKWPIHPSAPELAGHKRQFGSVCHQDPRVCDEPSSEDPHEWPEDITKWPICTKNSAGNHTNHPHMDCVITGRPCCIGTKGRCEITSREYCDFMRGYFHEEATLCSQVHCMDDVCGLLPFLNPEVPDQFYRLWLSLFLHAGILHCLVSICFQMTVLRDLEKLAGWHRIAIIYLLSGVTGNLASAIFLPYRAEVGPAGSQFGILACLFVELFQSWQILARPWRAFFKLLAVVLFLFTFGLLPWIDNFAHISGFISGLFLSFAFLPYISFGKFDLYRKRCQIIIFQVVFLGLLAGLVVLFYVYPVRCEWCEFLTCIPFTDKFCEKYELDAQLH",no binding,no binding,no binding,binds,
"endogenous iRhom2 (protein, UniProt Q6PJF5 1-856) MASADKNGGSVSSVSSSRLQSRKPPNLSITIPPPEKETQAPGEQDSMLPEGFQNRRLKKSQPRTWAAHTTACPPSFLPKRKNPAYLKSVSLQEPRSRWQESSEKRPGFRRQASLSQSIRKGAAQWFGVSGDWEGQRQQWQRRSLHHCSMRYGRLKASCQRDLELPSQEAPSFQGTESPKPCKMPKIVDPLARGRAFRHPEEMDRPHAPHPPLTPGVLSLTSFTSVRSGYSHLPRRKRMSVAHMSLQAAAALLKGRSVLDATGQRCRVVKRSFAFPSFLEEDVVDGADTFDSSFFSKEEMSSMPDDVFESPPLSASYFRGIPHSASPVSPDGVQIPLKEYGRAPVPGPRRGKRIASKVKHFAFDRKKRHYGLGVVGNWLNRSYRRSISSTVQRQLESFDSHRPYFTYWLTFVHVIITLLVICTYGIAPVGFAQHVTTQLVLRNKGVYESVKYIQQENFWVGPSSIDLIHLGAKFSPCIRKDGQIEQLVLRERDLERDSGCCVQNDHSGCIQTQRKDCSETLATFVKWQDDTGPPMDKSDLGQKRTSGAVCHQDPRTCEEPASSGAHIWPDDITKWPICTEQARSNHTGFLHMDCEIKGRPCCIGTKGSCEITTREYCEFMHGYFHEEATLCSQVHCLDKVCGLLPFLNPEVPDQFYRLWLSLFLHAGVVHCLVSVVFQMTILRDLEKLAGWHRIAIIFILSGITGNLASAIFLPYRAEVGPAGSQFGLLACLFVELFQSWPLLERPWKAFLNLSAIVLFLFICGLLPWIDNIAHIFGFLSGLLLAFAFLPYITFGTSDKYRKRALILVSLLAFAGLFAALVLWLYIYPINWPWIEHLTCFPFTSRFCEKYELDQVLH",no binding,no binding,,binds,
"endogenous iRhom2, Q6PJF5 1-856 (protein) MASADKNGGSVSSVSSSRLQSRKPPNLSITIPPPEKETQAPGEQDSMLPEGFQNRRLKKSQPRTWAAHTTACPPSFLPKRKNPAYLKSVSLQEPRSRWQESSEKRPGFRRQASLSQSIRKGAAQWFGVSGDWEGQRQQWQRRSLHHCSMRYGRLKASCQRDLELPSQEAPSFQGTESPKPCKMPKIVDPLARGRAFRHPEEMDRPHAPHPPLTPGVLSLTSFTSVRSGYSHLPRRKRMSVAHMSLQAAAALLKGRSVLDATGQRCRVVKRSFAFPSFLEEDVVDGADTFDSSFFSKEEMSSMPDDVFESPPLSASYFRGIPHSASPVSPDGVQIPLKEYGRAPVPGPRRGKRIASKVKHFAFDRKKRHYGLGVVGNWLNRSYRRSISSTVQRQLESFDSHRPYFTYWLTFVHVIITLLVICTYGIAPVGFAQHVTTQLVLRNKGVYESVKYIQQENFWVGPSSIDLIHLGAKFSPCIRKDGQIEQLVLRERDLERDSGCCVQNDHSGCIQTQRKDCSETLATFVKWQDDTGPPMDKSDLGQKRTSGAVCHQDPRTCEEPASSGAHIWPDDITKWPICTEQARSNHTGFLHMDCEIKGRPCCIGTKGSCEITTREYCEFMHGYFHEEATLCSQVHCLDKVCGLLPFLNPEVPDQFYRLWLSLFLHAGVVHCLVSVVFQMTILRDLEKLAGWHRIAIIFILSGITGNLASAIFLPYRAEVGPAGSQFGLLACLFVELFQSWPLLERPWKAFLNLSAIVLFLFICGLLPWIDNIAHIFGFLSGLLLAFAFLPYITFGTSDKYRKRALILVSLLAFAGLFAALVLWLYIYPINWPWIEHLTCFPFTSRFCEKYELDQVLH",,,,,no binding

# No constants are given. Whether binding was seen depends on the method and setting. In cells and extracts the contact can be indirect. A yes stands for co-enrichment or nearness to the bait. Other partners may have been found. For some assays here: No binding means not detected with the bait. For some assays here: Tags and fused reporters may be left off the sequences shown.
